According to US20240383953A1, “NOVEL NAN[…] NANOG PRION-LIKE REPEATS” (BAYLOR COLLEGE OF MEDICINE, priority 2021, published 2024):
These are yes or no findings as the source states them, for the method shown. Some results given as binding are weak or reduced against the parent protein; the word gives no strength.

Amino acid sequences for entries named in this document (tags omitted).
UniProt Q9H9S0: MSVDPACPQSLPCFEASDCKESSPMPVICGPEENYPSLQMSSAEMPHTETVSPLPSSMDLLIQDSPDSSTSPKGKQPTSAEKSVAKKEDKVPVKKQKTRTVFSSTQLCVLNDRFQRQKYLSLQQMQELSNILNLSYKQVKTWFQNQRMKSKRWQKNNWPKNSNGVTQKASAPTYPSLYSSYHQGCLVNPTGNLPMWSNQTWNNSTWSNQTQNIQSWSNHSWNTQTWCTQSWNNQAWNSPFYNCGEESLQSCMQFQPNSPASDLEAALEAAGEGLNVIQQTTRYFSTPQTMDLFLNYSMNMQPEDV

Key:
[1] = biological target: GB1-fused NANOG WT (human) (UniProt Q9H9S0); experiment: size exclusion chromatography
[2] = biological target: GB1-fused NANOG WT (human) (UniProt Q9H9S0); experiment: UV-detected SEC
[3] = biological target: GB1-fused NANOG WT (human) (UniProt Q9H9S0); experiment: size exclusion chromatography after co-expression in E. coli

Measured: binding

B1: Skp chaperone (protein, UniProt P0AEU7 21-161, looked up)
chain: ADKIAIVNMGSLFQQVAQKTGVSNTLENEFKGRASELQRMETDLQAKMKKLQSMKAGSDRTKLEKDVMAQRQTFAQKAQAFEQDRARRSNEERGKLVTRIQTAVKSVANSQDIDLVVDANAVAYNSSDVKDITADVLKQVK
binds: [1] | [2] | [3]
